Laboratory results published in PubChem BioAssay AID2685 (National Center for Advancing Translational Sciences (NCATS), 2010).
The other results are listed elsewhere or left out. These are further read-outs of the screen, such as a control signal, another cell line or another target. No call is given for them. Compounds called inactive in the main read-out are mostly missing here. Potencies come from curve fits of mixed quality, noted in brackets.

Assay: qHTS Assay for Lipid Storage Modulators in Drosophila S3 Cells;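 as to cell number change: cells counted by Cell Tracker Red CMTPX staining in the red channel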
Conditions: BODIPY lipid droplet fluorescence, 18-24 h; for cell number change: measured here: cell count max response, cells fed with added oleic acid
Method in brief: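 Drosophila S3 cells loaded with oleic acid (400 uM, as added) and compounds at several concentrations; lipid droplets imaged by 488-nm laser-scanning cytometry, 500–530 nm intensity and object ratio to cell channel. Percent activity normalized to 20 uM Triacsin C.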

[1] = measured here: lipid fluorescence (Fed channel) AC50, cells fed with added oleic acid
[2] = measured here: cell number channel AC50, cells fed with added oleic acid

SMILES | cell number change [%] | AC50 [1] | AC50 [2]
O=C(CN1CCCC1)N/N=C/c1c(O)ccc2ccccc12 | -11 | 6.51 µM [rising, single point] | 
CSc1nnc(SCC#N)s1 | 30.3 | 16.4 µM [rising, single point] | 14.6 µM [rising, single point]
COc1ccccc1NS(=O)(=O)c1ccc2c(c1)n(C)c(=O)n2C | 44.9 | 13 µM [rising, partial curve] | 0.411 µM [rising, full curve]
Cc1oc(=O)c(NC(=O)c2cccc(Cl)c2)cc1C(=O)c1ccccc1 | -15.5 | 29.1 µM [falling, partial curve, poor fit] | 
CCOC(=O)Cn1nc(-c2ccc(F)cc2)oc1=O | 16.3 |  | 
O=c1ccc(Cc2ccc(Cl)cc2)n[nH]1 | 13.1 | 29.1 µM [falling, single point] | 
CSc1nnc(CNC(=O)c2ccccc2)n1-c1ccc(F)cc1 | -99.2 | 6.51 µM [falling, partial curve, poor fit] | 32.6 µM [falling, partial curve]
N#CCCn1cc(/C=C2\NC(=S)N(c3ccccc3)C2=O)c(-c2ccc(F)cc2)n1 | -33.1 | 29.1 µM [falling, single point] | 29.1 µM [falling, single point]
Cc1nc2sc(C(c3cccs3)N3CC(C)CC(C)C3)c(O)n2n1 (stereo not drawn) | -23.9 | 32.6 µM [falling, single point] | 
COc1ccc(CN(C)C(=O)CNC(=O)c2ccc3ccccc3c2)c(OC)c1 | -3.42 | 6.51 µM [rising, single point] | 
CN(Cc1cccc(F)c1)C(=O)CN1CCN(S(=O)(=O)c2ccc3c(c2)OCCCO3)CC1 | -7.42 |  | 2.31 µM [falling, single point]
COc1ccc(-c2c(C#N)c(N)nc3c2CCc2ccccc2-3)cc1OC | 20.1 | 9.2 µM [rising, partial curve, poor fit] | 
COc1ccc(-c2nc3n(c(=O)c2C#N)CCS3)cc1OC | 14.2 | 29.1 µM [rising, single point] | 
O=C(Cc1ccccc1)NC1(Cc2ccc(O)cc2)CCCCC1 | 22.6 |  | 0.103 µM [rising, full curve, poor fit]
CCn1ccc(C(=O)Nc2ccc(Cl)cn2)n1 | 35.9 | 2.91 µM [falling, single point] | 1.16 µM [rising, full curve, poor fit]
CN1C(=O)NC(NC(=O)c2ccncc2)(C(F)(F)F)C1=O (stereo not drawn) | -4.74 | 16.4 µM [falling, single point] | 
Fc1ccc(-c2ccc(/C=N/n3cnnc3)o2)cc1 |  | 4.11 µM [falling, single point] | 
O=C(Cn1cnc2ccccc21)Nc1cccc(S(=O)(=O)N2CCCC2)c1 | -30.3 | 1.3 µM [falling, partial curve] | 11.6 µM [falling, partial curve]
CCc1nn(C(C)C(=O)NCc2cccc(Cl)c2)c(=O)c2cc3occc3n12 (stereo not drawn) |  | 29.1 µM [falling, single point] | 
CC(=O)Nc1ccc(C(=O)CSc2nnc3scc(-c4ccccc4)n23)cc1 | 20.5 |  | 0.259 µM [rising, full curve, poor fit]
COc1ccc(C(=O)Nc2ccc(O)cc2C(=O)O)cc1 | -19.2 | 7.94 µM [falling, partial curve] | 

A stretch from further up:
SMILES | cell number change [%] | AC50 [1] | AC50 [2]
O=C(CN1CCCC1)N/N=C/c1c(O)ccc2ccccc12 | -11 | 6.51 µM [rising, single point] | 
CSc1nnc(SCC#N)s1 | 30.3 | 16.4 µM [rising, single point] | 14.6 µM [rising, single point]

(cont.)

SMILES | cell number change [%] | AC50 [1] | AC50 [2]
COC(=O)c1ccccc1NC(=O)CSc1nc2c(c(=O)[nH]1)CCC2 |  | 0.58 µM [rising, single point] | 6.51 µM [falling, single point]
CCOc1ccc(CNc2ccc(N3CCN(Cc4ccccc4)CC3)cc2)cc1 |  | 0.82 µM [falling, full curve, poor fit] | 
Cc1sc2ncnc(N3CCC(C(=O)Nc4ccc(C#N)cc4)CC3)c2c1C | 28.2 | 0.82 µM [rising, partial curve] | 
CCS(=O)(=O)N1CCN(C(=O)c2cccc(OC)c2)CC1 | -0.606 | 1.03 µM [falling, full curve] | 
CCN(CC)C(=O)CSc1nc2cc3c(cc2c(=O)n1CCCCCC(=O)NCc1ccc(OC)cc1)OCO3 | -49.8 |  | 29.1 µM [falling, single point]
CC(=O)c1ccc(N2CCN(c3ccc(S(=O)(=O)N4CCN(C)CC4)cn3)CC2)cc1 | 20.5 | 6.51 µM [rising, full curve] | 
CC(Oc1cccc(Cl)c1)C(=O)Nc1ccccc1N1CCCC1 (stereo not drawn) |  |  | 6.51 µM [falling, single point]
O=C(NC(=O)c1ccc(Cl)cc1)OC1CCCCC1 | 34 | 10.3 µM [rising, partial curve] | 5.8 µM [rising, partial curve]
CC1(C(=O)NCc2ccc(Cl)c(Cl)c2)Oc2ccccc2NC1=O (stereo not drawn) |  | 2.31 µM [rising, partial curve] | 1.84 µM [rising, partial curve, poor fit]
CC(C)CC(NC(=O)OC(C)(C)C)C(=O)O (stereo not drawn) | 15.2 |  | 
O=c1oc2ccccc2cc1-c1cn2cccnc2n1 | 24.6 | 3.26 µM [rising, single point] | 
O=C(CN1CCN(S(=O)(=O)c2ccccc2)CC1)Nc1cccc(C(F)(F)F)c1 | -63.8 | 0.146 µM [falling, full curve, poor fit] | 14.6 µM [falling, partial curve]
CCN(CC)CCn1cnc2c1c(=O)n(CCOC(=O)c1cc(OC)c(OC)c(OC)c1)c(=O)n2C | 36.8 | 8.2 µM [rising, partial curve, poor fit] | 0.103 µM [rising, partial curve]
CCOc1cc(C(=S)N2CCCCC2)ccc1OS(=O)(=O)c1ccc(Cl)cc1 | -23 | 32.6 µM [falling, single point] | 
Cc1ccc2c(c1)COc1c3ccc(C(=O)N4CCOCC4)cc3nn1-2 | 5.2 | 0.58 µM [rising, full curve] | 
COc1ccc(OC)c(NC(=O)CSc2nnc(CNc3ccc(C)cc3C)o2)c1 | 1.43 | 0.206 µM [rising, full curve] | 
O=c1[nH][nH]c(=S)n1C1CCCCC1 | -32.5 | 32.6 µM [falling, single point] | 29.1 µM [falling, single point]
Cc1ccccc1-n1c(SCC(N)=O)nc2sc(-c3ccccc3)cc2c1=O | 55.8 |  | 1.46 µM [rising, full curve]
CC1=C(C(=O)Nc2cccc(F)c2)C(c2ccsc2)C2=C(CC(C)(C)CC2=O)N1 (stereo not drawn) | 13.8 | 0.0411 µM [rising, partial curve, poor fit] | 
Cc1ccc2nc(-c3ccccc3N)[nH]c2c1 | -3.49 | 29.1 µM [rising, single point] | 
O=c1oc2c(-c3cccc(F)c3)cc(O)cc2s1 | -28.1 | 25.9 µM [falling, single point] | 

Whole records from above. Order of values: cell number change [%] | AC50 [1] | AC50 [2]
`O=C(NC(=O)c1ccc(Cl)cc1)OC1CCCCC1` in the list: 34 | 10.3 µM [rising, partial curve] | 5.8 µM [rising, partial curve]
`CSc1nnc(SCC#N)s1` in the list: 30.3 | 16.4 µM [rising, single point] | 14.6 µM [rising, single point]

(next part)

SMILES | cell number change [%] | AC50 [1] | AC50 [2]
Cc1ccc(C)c(S(=O)(=O)N2CCN(c3ncccn3)CC2)c1 | -0.184 |  | 
Cn1c(Cc2cccs2)nnc1SCC(=O)Nc1ccccc1 |  | 3.66 µM [rising, full curve] | 
CC1C(=O)CCC1(C(=O)O)c1ccccc1 (stereo not drawn) | 0.974 | 4.11 µM [falling, single point] | 
COc1ccc(-c2nn(-c3ccccc3)cc2C(=O)NCC2CCCO2)cc1 (stereo not drawn) | -17.6 |  | 
CCCCn1c(N)c(N(CC)C(=O)c2ccncc2)c(=O)[nH]c1=O | -7.02 | 1.84 µM [falling, partial curve] | 
COc1ccc(/C=C/C(=O)NC2CCCCC2C)cc1 (stereo not drawn) | -6.2 |  | 
CCOC(=O)c1c(C)nc2sc3c(=O)n(-c4ccc(C(C)=O)cc4)nnc3c2c1-c1ccc(OC)cc1 | -8.41 | 2.59 µM [falling, single point] | 
O=C(CSc1ccc(-c2ccncc2)nn1)c1ccccc1 | -8.72 | 6.51 µM [falling, single point] | 6.51 µM [falling, single point]
C=CCn1cnc2c(sc3nc(C)cc(C)c32)c1=O | 22.3 | 10.3 µM [rising, partial curve, poor fit] | 
CCOC(=O)c1ccc(-n2c(CN(CC)CC)nc3ccc([N+](=O)[O-])cc3c2=O)cc1 | -11.9 |  | 
CCOc1ccc(NC(=O)CCN2C(=O)c3cccc([N+](=O)[O-])c3C2=O)cc1 | -1.59 | 23.1 µM [rising, single point] | 
O=C(CN1C(=O)NC2(CCc3ccccc32)C1=O)NCC(F)(F)F (stereo not drawn) | -0.451 | 29.1 µM [falling, single point] | 
CSc1ccc(NC(=O)N2CC=C(n3c(=O)[nH]c4ccccc43)CC2)cc1 | 14.8 | 0.731 µM [rising, partial curve] | 
CCNC(=O)NC1(C(=O)Nc2ccc3c(c2)CCC3)CCCCC1 | 14.9 |  | 
CCc1ccccc1NC(=O)c1ccc(NCCc2ccccc2)c([N+](=O)[O-])c1 | -18.3 | 32.6 µM [falling, single point] | 
CC(Sc1nnc(COc2ccccc2)n1-c1ccccc1)C(=O)O (stereo not drawn) | -2.92 |  | 
Cc1csc(SCC(=O)N(c2ccccc2)C(C)C)n1 | 150 |  | 29.1 µM [rising, single point]
COc1cc(C)c2occ(/C(C)=N\O)c2c1 | -4.2 |  | 
Cc1ccc2nc(-c3ccc(F)cc3)nc(SCC(=O)NCC3CCCO3)c2c1 (stereo not drawn) | 12.9 |  | 
